The values that follow come from paper PMC6073362.

These are yes or no findings as the source states them, for the method shown. For some of these results: Binding calls can cover weak binding; strength is not graded here. Where a sequence is shown, tags or fusion partners need not be part of it.

Experiment [1] addresses T1, MBP–GW2 (rice (Oryza sativa L.)) (UniProt B9F4Q9).
T1 sequence: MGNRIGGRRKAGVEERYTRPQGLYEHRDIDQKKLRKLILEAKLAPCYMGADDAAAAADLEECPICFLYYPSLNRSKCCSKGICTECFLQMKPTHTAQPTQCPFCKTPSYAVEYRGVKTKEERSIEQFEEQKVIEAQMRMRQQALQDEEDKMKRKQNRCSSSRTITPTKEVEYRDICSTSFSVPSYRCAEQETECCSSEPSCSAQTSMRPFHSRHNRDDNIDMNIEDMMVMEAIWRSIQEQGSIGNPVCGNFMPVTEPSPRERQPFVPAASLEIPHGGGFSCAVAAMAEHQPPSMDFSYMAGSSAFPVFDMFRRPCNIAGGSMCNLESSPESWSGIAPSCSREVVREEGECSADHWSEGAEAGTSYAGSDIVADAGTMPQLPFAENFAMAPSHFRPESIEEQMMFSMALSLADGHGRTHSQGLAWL
Put plainly: pull-down; 2 µg MBP–GW2 and 2 µg GST–EXPLA1, 25 °C for 2 h in 50 mM Tris-HCl (pH 7.5), 100 mM NaCl, 1% Triton X-100, 0.2% glycerol, 0.5 mM β-mercaptoethanol; pulled down with amylose resin; GST–EXPLA1 detected with an anti-GST antibody; both purified.

For experiment [2], the target named is BD-EXPLA1 (rice (Oryza sativa L.)). Nature of the experiment: two-hybrid; AD-GW2 (pGAD424) and BD fusions (pGBT8) co-transformed into yeast AH109; selected on -Leu/-Trp, growth tested on -Leu/-Trp/-His with 5 mM 3-AT.
The target of another experiment is EXPLA3 (Gal4 BD fusion). Described as above.
A further experiment addresses EXPLA4 (Gal4 BD fusion). The description is as above.

Take GST–EXPLA1 (rice (Oryza sativa L.)): the binding result in experiment [1] was “binds”.

B1: AD-GW2 (enzyme, UniProt B9F4Q9 1-425)
chain: T1 sequence
For the molecule B1, the binding entry is listed as “binds” in experiment [2], “no binding” with EXPLA3 (Gal4 BD fusion) and “no binding” with EXPLA4 (Gal4 BD fusion).
